Test results taken from PubChem BioAssay AID1487 (National Center for Advancing Translational Sciences (NCATS), 2009).
The campaign covered roughly 200,000 compounds. About 25 (0.01%) were called active. The inconclusive results got no clear call from the source; some entries with a clear call stand among them for comparison. The call rests on the fitted dose curve; in most records, active means well fitted inhibition curve with a large enough effect in the signal ratio, with a control signal flat (not every such curve was filed as active); inconclusive means small, poorly fitted or top-dose-only effect, or effect the other way, or a change in a side signal; inactive means flat fitted curve, though single readings scatter; the % refers to the signal ratio. Potencies of inconclusive entries are doubtful fits and often do not repeat.

test: qHTS Assay for Modulators of Lamin A Splicing; settings: HeLa LMNA splicing GFP/RFP minigene ratio, 48 h; ratio change, negative = inhibition: at 46.1 µM (top of the series) unless noted
Excerpt: NCGC Assay Overview: Hutchinson-Gilford Progeria Syndrome (HGPS) is a pediatric premature aging disease caused by a spontaneous mutation in the lamin A/C (LMNA) gene. The mutation activates a cryptic splice site in the LMNA pre-mRNA which results in production of a pre-lamin A protein that cannot be processed properly. The mutant protein accumulates in the nucleus and negatively affects numerous cellular functions. Correction of the splicing defect in HGPS patient cells using a targeted oligonucleotide (exo11) leads to reversal of the cellular disease phenotypes. To identify small molecule modulators of aberrant LMNA splicing, a homogenous assay was constructed in HeLa cells that used a GFP containing minigene to report on correction of aberrant splicing in lamin A and a RFP (DsRed2) to report on cell viability, uniformity and nonspecific effects on the assay signal. This assay was adapted to laser-scanning microplate cytometry (Acumen, TTP Labtech) where miniaturization of the assay to a 1,536-well plate format was possible. References: Bowen, W. P.; Wylie, P. G. Application of Laser-Scanning Fluorescence Microplate Cytometry in High Content Screening. Assay Drug Dev Technol 2006;4:209-221. Scaffidi P, Misteli T. Reversal of the cellular phenotype in the premature aging disease Hutchinson-Gilford progeria syndrome. Nat.
NCGC Assay Protocol Summary: Reagents/Controls: Stable clones expressing DsRed2 and lamin A-EGFP were generated by Cell and Molecular Technologies in S3 HeLa cells. HeLa cells were prepared for the assay when they were 70-90% confluent. The cells were counted and resuspended in Opti-MEM I (no phenol red; Gibco), 2% FBS, 1% penicillin/ streptomycin (Gibco) at concentration of 120 cells/uL concentration. The suspension was passed through a Falcon basket filter with pore size 40um (Beckton Dickson). Control titrations: column […] 1536-well plate contained a sixteen point titration (1:2 dilutions) in duplicate of ancitabine (Sigma: A8598) beginning at 40 uM final concentration. Column 2 contained a sixteen point titration (1:2 dilutions) of cycloheximide beginning at 1.4 mM final concentration. Column 3 contained ancitabine at 40 uM and column 4 contained was the vehicle control (0.5% DMSO final concentration). Assay Steps: 5 uL of HeLa cells were plated in Aurora LoBase black clear bottom (cyclic-olefin polymer) 1536-well plates at a final density of 600 cells/well. Controls and library compounds were added with a 1536-well pin array using the Kalypsys pin-tool. The plates were then incubated for 48 hrs in a cell-culture incubator (37 °C; 5% CO2, 98% humidity). Following incubation the plates were read on the Acumen Explorer using the 488 nm laser. Data was collected on objects between 10 and 100 um in size. Cell objects were defined by a 15 um width x 10 um depth filter. The ratio of the total object intensity in PMT1 (500-530 nm emission; GFP) over PMT3 (575-640 nm emission; RFP) was calculated for analysis. Keywords: NIH Roadmap, MLSCN, MLI, MLSMR, qHTS, NCGC, lamin A, Progeria, RNA splicing.
On the % scale 0 is the no-effect control and ±100 the full control effect; potency means the concentration at half of the fitted maximal effect.

Structure (SMILES)	ratio change, negative = inhibition	Potency
O=C(NCc1ccco1)c1cc2nc(-c3cccs3)cc(C(F)(F)F)n2n1	inconclusive: 16.4%	–
COCCCn1c(=S)[nH]c2c(sc3ccccc32)c1=O	inconclusive: 32.1% [at 46 µM]	–
CC(NCC(O)COc1ccc(S(=O)(=O)N2CCOCC2)cc1)c1ccccc1 (stereo unspecified)	inconclusive: -13.7% [at 46 µM]	–
CCOC(=O)c1nc(C)n(-c2cc(OC)c(Cl)cc2Cl)n1	inactive: 11.3% [at 46 µM]	–
CCN1C(=O)c2cccc3c(S(=O)(=O)Nc4ccccc4OC)ccc1c23	inconclusive: -38.2%	–
COc1cc2c(cc1NC(=O)Nc1ccccc1)oc1ccccc12	inconclusive: 3.47% [at 0.0737 µM]	–
CCc1cc(C(=O)NNC(=S)NC(C)c2ccccc2)cs1 (stereo unspecified)	–	inconclusive: 22.4 µM [falling, single point]
COc1ccc(C(=O)NCc2ccc(N3CCN(C(=O)OC(C)(C)C)CC3)cc2)cc1	–	inconclusive: 35.5 µM [falling, single point]
COc1cccc(NC(=O)CSc2nnc(-c3cccc(OC)c3)o2)c1	inconclusive: 25.6% [at 46 µM]	–
Cc1ccc(C)c(N2CCN(S(=O)(=O)c3cc(C(=O)Nc4ccc(Oc5ccccc5)cc4)ccc3F)CC2)c1	inconclusive: -16.5% [at 46 µM]	–
CCCn1c(C)cc(C(=O)COc2ccc(S(=O)(=O)N(CC)CC)cc2[N+](=O)[O-])c1C	–	inconclusive: 35.5 µM [fluorescent, single point]
CCCCNC(=O)CCCCCn1c(=O)[nH]c2ccccc2c1=O	inconclusive: 10.3% [at 46 µM]	–
CCCOc1ccc(C2C(C(=O)/C=C/c3ccco3)=C(O)C(=O)N2CCN2CCOCC2)cc1OC (stereo unspecified)	inconclusive: 3.86% [at 9.22 µM]	–
NS(=O)(=O)c1cccc(NC(=O)CCSc2ccc(Cl)cc2)c1	inconclusive: 30.7%	–
COc1ccccc1NC(=O)N1CCN(C)CC1	inactive: 2.52% [at 46 µM]	–
Cc1sc(NC(=O)c2ccco2)c(CN2CCC(C)CC2)c1C	inactive: 11.2%	–
Cc1ccccc1-c1nnc(SCC(=O)N(CC(C)C)c2c(N)n(CC(C)C)c(=O)[nH]c2=O)n1C	inconclusive: 16.6% [at 46 µM]	–
C=CCOC(=O)C1=C(C)NC(=O)NC1/C=C/c1ccccc1OC (stereo unspecified)	inconclusive: -9.57%	–
CCN(CC)CCCNC(=O)c1ccc(Cn2c(SCc3ccccc3)nc3cccnc32)cc1	inconclusive: 2.54% [at 46 µM]	–
Nc1ccc2nc(-c3ccccc3)sc2c1	inconclusive: -7.71%	–
Nc1c(C(=O)c2ccc(Cl)cc2)oc2ccccc12	inactive: -0.0032%	–
COc1ccc2[nH]cc(CCNc3ncnc4ccc(-c5c(C)noc5C)cc34)c2c1	–	inconclusive: 35.5 µM [inhibitor, single point]
Clc1ccc(-c2nn3c(C4COc5ccccc5O4)nnc3s2)cc1 (stereo unspecified)	inactive: 12.9%	–
CO/N=C/c1cn(-c2ccc(Cl)cc2)nn1	inconclusive: 9.52% [at 46 µM]	–
COc1cccc(C2C3=C(CCCC3=O)Nc3nc(-c4cc(OC)c(OC)c(OC)c4)nn32)c1 (stereo unspecified)	inconclusive: -34.4%	–
Cc1ccccc1OCCc1c(C)[nH]c(=S)[nH]c1=O	–	inconclusive: 0.0224 µM [activator, full curve, poor fit]

Structure (SMILES)	ratio change, negative = inhibition	Potency
COc1ccc(NC(=O)c2ccc(-c3ccc([N+](=O)[O-])cc3)o2)cc1	inconclusive: 50.8% [at 46 µM]	–
Cc1ccc(NC(=O)c2ccc(C(C)(C)C)cc2)cc1[N+](=O)[O-]	–	inconclusive: 35.5 µM [fluorescent, single point]
Cc1ccc(NC(=O)c2c(C(F)(F)F)nn(C)c2SCc2ccc(Cl)cc2)cc1C	inconclusive: 11.8%	–
COC(=O)c1cc(NC(=O)c2ccccc2)c(=O)oc1C/C=N\OCc1ccc(Cl)cc1Cl	inactive: -1.66%	–
COc1ccc(-c2cc(-c3ccccc3)n[nH]2)c(O)c1	inconclusive: -11.8% [at 46 µM]	–
CC(=O)c1ccc(N2CCN(C(=O)c3ccc4ccccc4n3)CC2)cc1	inconclusive: 34.8% [at 46 µM]	–
Cc1n[nH]c(C)c1S(=O)(=O)N1CCCC(C(=O)N2CCN(c3ccc(Cl)cc3)CC2)C1 (stereo unspecified)	–	inconclusive: 12.6 µM [fluorescent, single point]
COc1ccccc1NC(=S)N(Cc1ccco1)Cc1cc2cccc(C)c2[nH]c1=O	inactive: 0.369%	–
CCCCNC(=S)NNC(=O)c1csc(C)c1C	inconclusive: 0.18%	–
COc1ccccc1C(=O)NCC(c1ccc(N(C)C)cc1)N1CCc2ccccc21 (stereo unspecified)	inconclusive: -29.8% [at 46 µM]	–
OCC(O)C(O)C(O)CO (stereo unspecified)	inactive	–
O=C(Nc1ccc2ccccc2c1)c1cnccn1	inactive: 4.56%	–
Cc1ccccc1S(=O)(=O)NC1OC(=O)C(Oc2ccccc2)=C1Br (stereo unspecified)	inconclusive: -8.6% [at 46 µM]	–
CN(C)CC(=O)N1c2ccccc2CCc2ccc(NC(=O)c3ccc(N)cc3)cc21	inactive: -12.5%	–
Cc1ccc(Cl)c(NC(=O)COC(=O)CNS(=O)(=O)/C=C/c2ccccc2)c1Cl	inactive: 6.46%	–
CCC(c1nnnn1Cc1ccco1)N1CCN(c2cc(Cl)ccc2C)CC1 (stereo unspecified)	inconclusive: -15.1%	–
Nc1nnc(CSCc2ccc(Cl)cc2Cl)s1	inconclusive: -0.465%	–
N/C(=N\OC(=O)Cc1ccccc1)c1ccncc1	inactive: 13.4% [at 46 µM]	–
Cc1nc2ccccc2n1CC(O)COCC1CC=CCC1 (stereo unspecified)	–	inconclusive: 7.08 µM [falling, partial curve]
Cc1ccc(OCCN2CCN(c3nc(NCc4ccco4)c4ccccc4n3)CC2)cc1	–	inconclusive: 35.5 µM [fluorescent, single point]
CCOC(=O)COc1ccc(S(=O)(=O)Nc2cccc(SC)c2)cc1	inactive: -7.48%	–
O=C(Nc1ccc(F)c(F)c1)c1cc(S(=O)(=O)N2CCN(c3ccccn3)CC2)ccc1F	inactive: -0.267%	–
Cc1c(Br)c(=O)oc2c(C)c(O)ccc12	inconclusive: -10.5%	–
CCOc1cc(CNc2ccc(N3CCOCC3)cc2)cc(Br)c1OCC	–	inconclusive: 35.5 µM [fluorescent, single point]
Oc1cc(O)c2c(c1)OC(c1ccc(O)c(O)c1)C(O)C2 (stereo unspecified)	inconclusive: -8.91%	–

As entered above:
Potency with Cc1ccc(NC(=O)c2ccc(C(C)(C)C)cc2)cc1[N+](=O)[O-] reads inconclusive: 35.5 µM [fluorescent, single point]
Potency with Cc1nc2ccccc2n1CC(O)COCC1CC=CCC1 (stereo unspecified) reads inconclusive: 7.08 µM [falling, partial curve]
ratio change, negative = inhibition with Cc1ccc(Cl)c(NC(=O)COC(=O)CNS(=O)(=O)/C=C/c2ccccc2)c1Cl reads inactive: 6.46%
